In paper PMC5504357, “Antifungal Potential of Copper(II), Manganese(II) and Silver(I) 1,10-Phenanthroline Chelates Against Multidrug-Resistant Fungal Species Forming the Candida haemulonii Complex: Impact on the Planktonic and Biofilm Lifestyles” (Frontiers in Microbiology, 2017):

System: A549 cells
Experiment: Mammalian cell toxicity (MTT assay) and selectivity index
Format: cell-based, Human
Settings: for C. duobushaemulonii (SI) / C. haemulonii (SI) / C. haemulonii var. vulnera (SI): CC50/GM-MIC; for Overall mean (SI): mean of the SI values against the three species, ratio CC50 / MIC
Description: Three clinical isolates of each species that form the C. haemulonii complex were used in this study: C. haemulonii (LIPCh4 from finger nail, LIPCh7 from toe nail, and LIPCh12 from blood), C. duobushaemulonii (LIPCh1 from finger nail, LIPCh6 from toe nail, and LIPCh8 from blood) and C. haemulonii var. vulnera (LIPCh5 from toe nail, LIPCh9 from urine, and LIPCh11 from blood) (Ramos et al., [2015]). The fungal isolates were identified by the automatized system VITEK® 2 and then characterized by ITS1-5.8S-ITS2 gene sequencing (Ramos et al., [2015]). Fungal cells were cultured in Sabouraud-dextrose medium under constant agitation (130 rpm) for 48 h at 37°C. Human lung adenocarcinoma A549 cells were maintained in culture flasks containing DMEM medium supplemented with 10% fetal bovine serum at 37°C in an atmosphere of 5% CO2.
The cytotoxicity was evaluated using the MTT [3-(4,5-dimethylthiazol-2-yl)-2,5-diphenyl tetrazolium bromide] (Sigma-Aldrich) assay (Mosmann, [1983]). A549 cells (10^4) were seeded into tissue culture plates (TPP, Switzerland) and cultured for 24 h at 37°C in a 5% CO2 in order to obtain cellular confluence. The wells were then washed twice with DMEM to remove non-adherent cells and the test compounds were added (in concentrations ranging from 0.0313 to 512 μg/mL) to plates containing DMEM, followed by a 48 h incubation period under the same conditions mentioned above. The cellular viability was evaluated by adding MTT to each well and incubating the plates in the dark for 3 h, allowing the viable cells containing active mitochondrial dehydrogenase enzymes to metabolize MTT-tetrazolium salt into purple formazan. The formazan crystals were then dissolved in DMSO (100 μL) and the absorbance (450 nm) measured using a Thermomax Molecular Device microplate reader. The concentration capable of reducing cellular viability by 50% (CC50) was calculated, and the selectivity index (SI) determined using the following equation: A549 CC50/C. haemulonii complex GM-MIC.

SMILES	C. duobushaemulonii (SI)	C. haemulonii (SI)	C. haemulonii var. vulnera (SI)	Overall mean (SI)
O.O.O.O.O.O.O.O.O.O.O.O.O.O.O.O.O=C([O-])c1cccc(C(=O)[O-])c1.O=C([O-])c1cccc(C(=O)[O-])c1.[Mn+2].[Mn+2].c1cnc2c(c1)ccc1cccnc12.c1cnc2c(c1)ccc1cccnc12.c1cnc2c(c1)ccc1cccnc12.c1cnc2c(c1)ccc1cccnc12.c1cnc2c(c1)ccc1cccnc12 [compound 11, {[Mn(phen)2(H2O)2]}2(isoph)2(phen).12H2O]	99.91	99.91	99.91	99.91
CCO.O.O.O.O.O.O.O=C([O-])c1cccc(C(=O)[O-])c1.[Cu+2].c1cnc2c(c1)ccc1cccnc12.c1cnc2c(c1)ccc1cccnc12 [compound 3, [Cu(isoph)(phen)2].6H2O.EtOH]	0.18	0.09	0.14	0.14
O.O.O.O.O=C([O-])c1cccc(C(=O)[O-])c1.O=C([O-])c1cccc(C(=O)[O-])c1.[Mn+2].[Mn+2].c1cnc2c(c1)ccc1cccnc12.c1cnc2c(c1)ccc1cccnc12.c1cnc2c(c1)ccc1cccnc12 [compound 10, [Mn2(isoph)2(phen)3].4H2O]	40.30	40.30	63.97	48.19
O=[N+]([O-])[O-].[Ag+] [AgNO3, reference compound]	26.95	21.39	33.96	27.43
[Cl][Mn][Cl] [MnCl2, reference compound]	>4.18	>4.18	>4.18	>4.18
